For orientation: AC50 means the concentration giving half of the maximal activity seen.

The values that follow come from PubChem BioAssay AID493014 (National Center for Advancing Translational Sciences (NCATS), 2011).

A short description of the assay: qHTS Assay to Find Inhibitors of Chronic Active B-Cell Receptor Signaling. The note with it: ABC-DLBCL IkBa-CBG/CBR reporter, luminescence ratio (green luciferase fused to IkBa over red control in TMD8 lymphoma cells), 4 h. Summed up:
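TMD8 human ABC-DLBCL cells with doxycycline-inducible IκBα–green luciferase fusion and unfused red luciferase, in 0.5% FBS medium; compounds up to 46 uM, 4 h at 37C. Green/red luminescence ratio, filter-overlap corrected, fitted to concentration-response curves.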

Where [1] appears, read: measured here: CBR red luminescence, cell number.
[2] abbreviates: measured here: IkBa-CBG green luminescence.

The other results are listed elsewhere or left out. Shown are side measurements of this screen, not its main read-out; they come without a call. The list favours compounds with an active or inconclusive main result. Words in brackets tell the shape of the fitted curve; partial curves, single points and poor fits give uncertain potencies.

As for `COc1cc(/C=C/C(=O)N(C)CC(=O)Nc2ccccc2SC)cc(OC)c1OC`, under setting [1], the AC50 is 1.64 µM [rising, full curve, poor fit].
Take `CCOC(=O)N1CCN(c2c(NCCCN(CC)Cc3ccccc3)c(=O)c2=O)CC1`: under setting [1], the AC50 is 11.2 µM [falling, partial curve, poor fit].
On the same count and under the same terms, for `Nc1nc(COC(=O)CCC(=O)c2ccccc2)nc(Nc2ccccc2)n1` the value was 2.31 µM [rising, full curve]; for `COc1ccc(N2C(=O)NC(NC(=O)c3cccnc3)(C(F)(F)F)C2=O)cc1` (stereo not drawn), 12.6 µM [rising, single point]; for `CCOC(=O)C1CCCN(C(=S)NC2CCCC2)C1` (stereo not drawn), 2.51 µM [rising, full curve, poor fit].
Regarding `CS(=O)(=O)N1CCN(c2ccc([N+](=O)[O-])c3cccnc23)CC1`, the AC50 under setting [1] was 35.5 µM [rising, single point].
On the same count and under the same terms, for `O=C(Nc1c(C(=O)Nc2ccc3c(c2)OCCO3)cnn1-c1ccccc1Cl)c1ccco1` the value was 7.31 µM [falling, partial curve, poor fit].
`CCn1ccnc1[C@@H]1C[C@H]2CN(c3ccccc3OC)C(=O)[C@]23CCCN13`: the AC50 under setting [1] is 0.501 µM [rising, full curve, poor fit].
Regarding `O=C(C[C@H]1C[C@H](C(=O)N2CCOCC2)[C@@]2(CCC3CCCC3)c3[nH]c4ccc(Cl)cc4c3CCN2C1=O)NCCc1ccccn1`, the AC50 under setting [1] was 9.2 µM [rising, partial curve].
On to `CNC[C@H]1Oc2c(NS(=O)(=O)c3ccccc3)cccc2C(=O)N([C@H](C)CO)C[C@@H]1C`, for which, under setting [1], the AC50 was 25.9 µM [rising, single point].
For `Cc1cccc(OCC(=O)NNC(=O)C2CCCCC2C(=O)O)c1` (stereo not drawn), the AC50 under setting [1] is 29.1 µM [rising, single point].
In the case of `COC(=O)C1CN(C(=O)C(C)Oc2ccc(C(C)C)cc2)c2ccccc2O1` (stereo not drawn), under setting [1], the AC50 is 35.5 µM [falling, single point].
On to `CCN1CCN(CC(=O)Nc2ccccc2)C(=O)C1=O`, for which the half-maximal activity concentration (AC50) under setting [1] was 3.26 µM [falling, full curve, poor fit].
With `COC(=O)c1ccccc1NC(=O)CN1CCC(n2nnc3cc(C(F)(F)F)ccc32)CC1`, the AC50 under setting [1] is 6.51 µM [falling, single point].
`COC(=O)Nc1ccc(C)c2nsnc12`: the AC50 under setting [1] was 7.08 µM [rising, full curve, poor fit].
Consider `Clc1cccc(Cl)c1CNC1CCCC1`, for which, under setting [1], the AC50 is 6.51 µM [rising, single point].
For `COc1ccc(N2CCN(CCNC(=O)c3ccc4c(c3)[nH]c(=S)n3c5ccccc5nc43)CC2)cc1`, the AC50 under setting [1] is 35.5 µM [falling, single point] and the AC50 under setting [2] is 15.8 µM [rising, partial curve, poor fit].
Turning to `CCc1noc(C)c1C(=O)OCC(=O)Nc1cccc(C)c1`, the AC50 under setting [1] is 32.6 µM [rising, single point].
`CCN(CC)C(=O)c1cccc(-c2ccc(OC)cc2)c1`: the AC50 under setting [1] is 1.03 µM [falling, full curve] and the AC50 under setting [2] is 0.651 µM [rising, partial curve, poor fit].
In the case of `C[C@H](NC(=O)C1CCN(S(=O)(=O)c2ccccc2)CC1)C(=O)NCc1ccc(Cl)cc1Cl`, the AC50 under setting [1] was 7.08 µM [falling, full curve, poor fit].
In the case of `COc1cccc(-c2noc(-c3ccc(Cl)nc3)n2)c1`, the AC50 by setting is: under setting [1], 0.251 µM [rising, full curve, poor fit]; under setting [2], 0.126 µM [rising, full curve].
Consider `CCOC(=O)c1sc(=NC(=O)c2ccco2)n(C)c1C`, for which the AC50 under setting [1] was 6.31 µM [falling, partial curve, poor fit].
Still for that read-out and setting: for `O=C(CCNS(=O)(=O)c1cccc2nonc12)NCCc1ccc(Cl)cc1` the value was 23.1 µM [rising, single point]; for `O=C(Nc1nc2ccccc2[nH]1)c1ccc(Br)o1`, 3.16 µM [falling, full curve]; for `Cc1nc2cc(-c3sccc3-n3cccc3)nn2c(C)c1C`, 2.51 µM [rising, partial curve, poor fit].
Same read-out and setting: under `COc1cc(C(CC(=O)N2CCOCC2)c2c(OC)cc(OC)c3ccc(=O)oc23)cc(OC)c1OC` (stereo not drawn) stands 0.1 µM [rising, full curve, poor fit].
In the case of `O=C(N/N=C/c1ccc(OC(F)F)cc1)C1=COCCO1`, under setting [1], the AC50 is 12.6 µM [falling, partial curve].
On to `CC(C)N(C#N)c1nc(N2CCOCC2)nc(N2CCOCC2)n1`, for which the AC50 under setting [1] was 7.08 µM [falling, partial curve, poor fit].
On the same count and under the same terms, under `CC(=O)Cn1c(=O)oc2ccccc21` stands 11.2 µM [rising, single point].
As to `COc1ccc(OC)c(N2Cc3ccccc3C2)c1`, the AC50 under setting [2] is 25.9 µM [rising, partial curve, poor fit].
For `COc1ccc(-c2nnc(SCC(=O)N3CCCC3)o2)cc1`, the AC50 under setting [1] was 35.5 µM [rising, single point].
As to `COC(=O)c1ccc(NC(=S)NC2CC(C)(C)NC(C)(C)C2)cc1`, under setting [1], the AC50 is 29.1 µM [falling, single point].
Same read-out and setting: for `c1c2c(cc3sc(N4CCCCC4)nc13)OCCO2` the value was 20.6 µM [falling, partial curve].
On the same count and under the same terms, for `CCNc1nc(N)nc(Oc2ccc(OCC)nn2)n1` the value was 18.4 µM [rising, partial curve, poor fit].
With `O=C(CN1CCN(c2ccccc2F)CC1)c1c[nH]c2ccccc12`, the AC50 under setting [1] was 10 µM [falling, partial curve, poor fit].
Still for that read-out and setting: for `Cc1ccc(C(=O)C(C)OC(=O)Cc2n[nH]c(=O)c3ccccc23)cc1C` (stereo not drawn) the value was 14.6 µM [rising, partial curve, poor fit]; for `CCOC(=O)C1=C(C)N(CCCCCC(=O)O)C(=O)NC1c1ccc(Cl)cc1` (stereo not drawn), 15.8 µM [falling, partial curve, poor fit].
As to `COc1ccc(CNC(=S)N/N=C/c2ccc(O)c(OC)c2)cc1`, under setting [2], the AC50 was 20.6 µM [falling, partial curve, poor fit].
Regarding `COc1ccc(NC(=O)c2c(N)no[n+]2[O-])cc1`, under setting [1], the AC50 was 35.5 µM [falling, single point].
On the same count and under the same terms, for `O=S1(=O)N=C(N=Nc2c(O)[nH]c3ccccc23)c2ccccc21` the value was 3.16 µM [rising, partial curve, poor fit].
